{
  "source": "the supplement of paper PMC8728848",
  "binders": {"B1": {"name": "Ovorubin (Pomacea canaliculata), J7I2T6 (protein)", "chain": "MFVATSLLLAIATLVVRASPHNYLIMDIEPPKSVSERDILNLLSPLQVKHSFRVTGSTRLLIVIRLDAQSYEKLDEITVPGKVEVIPAVNMADTMERCGVSWPRVELTDDNVTLFESESTLTDVTKEQLKAMLIGYGEHMSGLLQAHRFEYYQAAGATPHRHFVFVNSVPDEIEVFGREGVDIWGGPGEFVVKPQYVTRI"}},
  "assay_in_all_cases": "glycan array binding signal (z-score within array); higher = stronger binding",
  "conditions_in_all_cases": "glycan notation: IUPAC condensed, linker removed",
  "key": {"[1]": {"target": "Fuc(a1-2)[GalNAc(a1-3)]Gal(b1-4)GlcNAc(b1-3)Gal(b1-4)GlcNAc", "outline": "(§1)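 Glycan array binding is given as a within-array Z-score, which can be read as non-binding when negative. The arrays, 3228 of them, came from the Consortium for Functional Glycomics database and were retained only where the protein sequence was available. Z-scores were averaged across arrays of the same protein sequence at different concentrations or buffers and across linkers.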"}, "[2]": {"target": "Fuc(a1-2)[GalNAc(a1-3)]Gal(b1-4)GlcNAc(b1-3)Gal(b1-4)GlcNAc(b1-3)Gal(b1-4)GlcNAc", "outline": "as §1"}, "[3]": {"target": "Fuc(a1-2)[GalNAc(a1-3)]Gal(b1-4)GlcNAc(b1-3)GalNAc", "outline": "as §1"}, "[4]": {"target": "Fuc(a1-2)[GalNAc(a1-3)]Gal(b1-4)GlcNAc(b1-3)[Fuc(a1-2)[GalNAc(a1-3)]Gal(b1-4)GlcNAc(b1-6)]GalNAc", "outline": "as §1"}, "[5]": {"target": "Fuc(a1-2)[GalNAc(a1-3)]Gal(b1-4)GlcNAc(b1-6)GalNAc", "outline": "as §1"}, "[6]": {"target": "Fuc(a1-2)[GalNAc(a1-3)]Gal(b1-4)[Fuc(a1-3)]GlcNAc", "outline": "as §1"}, "[7]": {"target": "Fuc(a1-2)[GalNAc(a1-3)]Gal(b1-4)[Fuc(a1-3)]GlcNAc(b1-3)GalNAc", "outline": "as §1"}, "[8]": {"target": "Fuc(a1-2)[GalNAc(a1-4)]Gal(b1-4)GlcNAc", "outline": "as §1"}, "[9]": {"target": "Fuc(a1-2)[GalNAc(b1-3)]Gal", "outline": "as §1"}, "Fuc(a1-3)GlcNAc": {"target": "Fuc(a1-3)GlcNAc", "outline": "as §1"}, "[10]": {"target": "Fuc(a1-3)[Gal(b1-4)]Glc6S", "outline": "as §1"}, "[11]": {"target": "Fuc(a1-3)[Gal(b1-4)]GlcNAc", "outline": "as §1"}, "[12]": {"target": "Fuc(a1-3)[Gal(b1-4)]GlcNAc(b1-2)Man", "outline": "as §1"}, "[13]": {"target": "Fuc(a1-3)[Gal(b1-4)]GlcNAc(b1-2)Man(a1-3)[Fuc(a1-3)[Gal(b1-4)]GlcNAc(b1-2)Man(a1-6)]Man(b1-4)GlcNAc(b1-4)GlcNAc", "outline": "as §1"}, "[14]": {"target": "Fuc(a1-3)[Gal(b1-4)]GlcNAc(b1-2)Man(a1-3)[Fuc(a1-3)[Gal(b1-4)]GlcNAc(b1-2)Man(a1-6)]Man(b1-4)GlcNAc(b1-4)[Fuc(a1-6)]GlcNAc", "outline": "as §1"}, "[15]": {"target": "Fuc(a1-3)[Gal(b1-4)]GlcNAc(b1-3)Gal(b1-3)[Fuc(a1-4)]GlcNAc", "outline": "as §1"}, "[16]": {"target": "Fuc(a1-3)[Gal(b1-4)]GlcNAc(b1-3)Gal(b1-4)[Fuc(a1-3)]GlcNAc", "outline": "as §1"}, "[17]": {"target": "Fuc(a1-3)[Gal(b1-4)]GlcNAc(b1-3)Gal(b1-4)[Fuc(a1-3)]GlcNAc(b1-3)Gal(b1-4)[Fuc(a1-3)]GlcNAc", "outline": "as §1"}, "[18]": {"target": "Fuc(a1-3)[Gal(b1-4)]GlcNAc(b1-3)GalNAc", "outline": "as §1"}, "[19]": {"target": "Fuc(a1-3)[Gal(b1-4)]GlcNAc(b1-6)GalNAc", "outline": "as §1"}, "[20]": {"target": "Fuc(a1-3)[Gal(b1-4)]GlcNAc(b1-6)[Gal(b1-3)GlcNAc(b1-3)]Gal(b1-4)Glc", "outline": "as §1"}, "[21]": {"target": "Fuc(a1-3)[Gal(b1-4)]GlcNAc6S", "outline": "as §1"}, "[22]": {"target": "Fuc(a1-3)[Gal3S(b1-4)]Glc", "outline": "as §1"}},
  "note": "The other results are listed elsewhere or left out.",
  "data": [
    {"binder": "B1", "values": [
      {"measurement": "glycan array binding signal (z-score)", "setting": "[1]", "result": -0.679},
      {"measurement": "glycan array binding signal (z-score)", "setting": "[2]", "result": -0.704},
      {"measurement": "glycan array binding signal (z-score)", "setting": "[3]", "result": -0.326},
      {"measurement": "glycan array binding signal (z-score)", "setting": "[4]", "result": -0.753},
      {"measurement": "glycan array binding signal (z-score)", "setting": "[5]", "result": -1.21},
      {"measurement": "glycan array binding signal (z-score)", "setting": "[6]", "result": -0.647},
      {"measurement": "glycan array binding signal (z-score)", "setting": "[7]", "result": 0.061},
      {"measurement": "glycan array binding signal (z-score)", "setting": "[8]", "result": -0.576},
      {"measurement": "glycan array binding signal (z-score)", "setting": "[9]", "result": -0.423},
      {"measurement": "glycan array binding signal (z-score)", "setting": "Fuc(a1-3)GlcNAc", "result": -0.985},
      {"measurement": "glycan array binding signal (z-score)", "setting": "[10]", "result": -0.226},
      {"measurement": "glycan array binding signal (z-score)", "setting": "[11]", "result": -0.033},
      {"measurement": "glycan array binding signal (z-score)", "setting": "[12]", "result": -0.081},
      {"measurement": "glycan array binding signal (z-score)", "setting": "[13]", "result": 0.055},
      {"measurement": "glycan array binding signal (z-score)", "setting": "[14]", "result": -0.362},
      {"measurement": "glycan array binding signal (z-score)", "setting": "[15]", "result": -0.594},
      {"measurement": "glycan array binding signal (z-score)", "setting": "[16]", "result": 0.745},
      {"measurement": "glycan array binding signal (z-score)", "setting": "[17]", "result": 0.056},
      {"measurement": "glycan array binding signal (z-score)", "setting": "[18]", "result": -0.376},
      {"measurement": "glycan array binding signal (z-score)", "setting": "[19]", "result": 0.355},
      {"measurement": "glycan array binding signal (z-score)", "setting": "[20]", "result": 0.356},
      {"measurement": "glycan array binding signal (z-score)", "setting": "[21]", "result": -0.121},
      {"measurement": "glycan array binding signal (z-score)", "setting": "[22]", "result": -0.645}
    ]}
  ]
}
